The test system of the test is P388 leukemia ip, CD2F1 mice, survival T/C. Nature of the test: NCI In Vivo Anticancer Drug Screen. Data for tumor model P388 Leukemia (intraperitoneal) in CD2F1 (CDF1) mice. The note with it: T/C endpoint: median survival time, higher T/C = longer survival.
Setting [1] is: dose: 100.0 mg/kg/injection, schedule: Q01DX009 (ip), vehicle: Klucel (hydroxypropylcellulose) (HPC).
The mark [2] stands for this setting: dose: 200.0 mg/kg/injection, schedule: Q01DX009 (ip), vehicle: Klucel (hydroxypropylcellulose) (HPC).
[3] abbreviates: dose: 100.0 mg/kg/injection, schedule: Q04DX003 (ip), vehicle: saline with Tween-80.
Where [4] appears, read: dose: 200.0 mg/kg/injection, schedule: Q01DX005 (ip), vehicle: Klucel (hydroxypropylcellulose) (HPC).
[5] abbreviates: dose: 400.0 mg/kg/injection, schedule: Q04DX003 (ip), vehicle: saline.

The list does not hold the whole screen: it gathers tests that were run many times, whatever their T/C, doses with no T/C, and many T/C values between a quarter and a half above the control. Further doses and runs are listed elsewhere. T/C gives the treated animals as a percentage of the vehicle group. Some entries give survivors of the animals treated and no T/C: the source holds a T/C of zero for them, seemingly a mark for toxic or unscored doses. Some doses without a T/C left all or most animals alive at the check, yet need not have been tolerated: the source hardly ever lists a survival T/C far under the control, and the zero likely stands for such cases as well. Survivors were counted at the toxicity check, usually on the fifth day, unless a day is given; later deaths do not show. Schedules are NCI's codes, read here as Q, the interval in days (D) or hours (H), X, the number of doses. Some doses were run more than once; their values stand side by side, smallest first. For survival time, this PubChem deposit counts one and a half times the control or more as active, and values a quarter to a half above the control carry no call in these data; other NCI protocols may use other cut-offs.

On to `Cc1c2c(Cc3ccccc3)nccc2c(C)c2c1c1ccccc1n2Cc1ccccc1`, for which the survivor count is, setting by setting: (dose: 25.0 mg/kg/injection, schedule: Q04DX003 (ip), vehicle: distilled water + Tween-80) 6 of 6; (dose: 100.0 mg/kg/injection, schedule: Q04DX003 (ip), vehicle: distilled water + Tween-80) 6 of 6; (dose: 200.0 mg/kg/injection, schedule: Q04DX003 (ip), vehicle: distilled water + Tween-80) 6 of 6.
`CC(=O)c1c(Br)c2c3ccccc3c3ccccc3n2c1C`: the survivor count (dose: 60.0 mg/kg/injection, schedule: Q01DX005 (ip), vehicle: saline with Tween-80) was 6 of 6 and the survivor count (dose: 120.0 mg/kg/injection, schedule: Q01DX005 (ip), vehicle: saline with Tween-80) was 6 of 6.
As to `C=C(C)c1nc(Oc2ccccc2)nc(Oc2ccccc2)n1`, the survivor count (dose: 100.0 mg/kg/injection, schedule: Q01DX001 (ip), vehicle: Klucel (hydroxypropylcellulose) (HPC)) is 6 of 6.
Take `Cc1c(O)c2c(c(O)c1Cc1ccc(CN)cc1)C(=O)c1ccccc1C2=O`: the survivor count (dose: 200.0 mg/kg/injection, schedule: Q04DX003 (ip), vehicle: water) is 5 of 6.
In the case of `CC1(C)CC2(OC2c2ccc([N+](=O)[O-])cc2)C(=O)c2ccccc21` (stereo unspecified), the survivor count by setting is: (dose: 6.25 mg/kg/injection, schedule: Q01DX009 (ip), vehicle: Klucel (hydroxypropylcellulose) (HPC)) 6 of 6; (dose: 12.5 mg/kg/injection, schedule: Q01DX009 (ip), vehicle: Klucel (hydroxypropylcellulose) (HPC)) 5 of 6 and 6 of 6; (dose: 25.0 mg/kg/injection, schedule: Q01DX009 (ip), vehicle: Klucel (hydroxypropylcellulose) (HPC)) 6 of 6; (dose: 50.0 mg/kg/injection, schedule: Q01DX009 (ip), vehicle: Klucel (hydroxypropylcellulose) (HPC)) 5 of 6 and 6 of 6; under setting [1], 6 of 6; under setting [2], 5 of 6 and 6 of 6.
On to `Nc1cc(=O)[nH]c(O)c1C(=O)O`, for which the survivor count is recorded as 6 of 6 (dose: 50.0 mg/kg/injection, schedule: Q01DX009 (ip), vehicle: saline with Tween-80) and 5 of 6 (dose: 100.0 mg/kg/injection, schedule: Q01DX009 (ip), vehicle: saline with Tween-80).
Regarding `Cc1ccc(OP(=O)(Oc2ccc(C)cc2)Oc2ccc(C)cc2)cc1.Cc1ccc(OP(=O)(Oc2ccc(C)cc2)Oc2ccc(C)cc2)cc1.Cc1ccc(OP(=O)(Oc2ccc(C)cc2)Oc2ccc(C)cc2)cc1.Cc1ccc(OP(=O)(Oc2ccc(C)cc2)Oc2cccc(C)c2)cc1.[Cd+2].[O-][Cl+3]([O-])([O-])O`, the survivor count is, setting by setting: under setting [1], 0 of 6; under setting [2], 0 of 6.
`CCC1CCCCN1C(=S)N/N=C(\C)c1ccccn1` (stereo unspecified): the T/C (dose: 50.0 mg/kg/injection, schedule: Q04DX003 (ip), vehicle: saline with Tween-80) was 125 % of control. Further, the survivor count is 2 of 6 and 3 of 6 under setting [3]; 1 of 6 (dose: 200.0 mg/kg/injection, schedule: Q04DX003 (ip), vehicle: saline with Tween-80); 0 of 6 (dose: 400.0 mg/kg/injection, schedule: Q04DX003 (ip), vehicle: saline with Tween-80).
Turning to `COc1ccc(/C=N\NC(=O)C(=O)N/N=C\c2ccc(OC)cc2)cc1`, the survivor count (dose: 50.0 mg/kg/injection, schedule: Q01DX009 (ip), vehicle: distilled water + alcohol) is reported as 6 of 6.
On to `CN(C)C1CCC(NC2=CC(=O)C(NC3CCC(N(C)C)CC3)=CC2=O)CC1` (stereo unspecified), for which the survivor count is 0 of 5 (dose: 12.5 mg/kg/injection, schedule: Q01DX005 (ip), vehicle: distilled water + alcohol); 0 of 5 (dose: 25.0 mg/kg/injection, schedule: Q01DX005 (ip), vehicle: distilled water + alcohol); 0 of 5 (dose: 50.0 mg/kg/injection, schedule: Q01DX005 (ip), vehicle: distilled water + alcohol); 0 of 5 (dose: 100.0 mg/kg/injection, schedule: Q01DX005 (ip), vehicle: distilled water + alcohol); 0 of 5 (dose: 200.0 mg/kg/injection, schedule: Q01DX005 (ip), vehicle: distilled water + alcohol).
Take `C/C=C(/C)C(=O)OC1c2c(C)coc2CC23OC2CCC(C)C13C` (stereo unspecified): the survivor count under setting [1] is 6 of 6.
Regarding `COc1ccc2nc3cc(Cl)ccc3c(Nc3ccc(O)c(CN(CCCl)CCCl)c3)c2c1`, the survivor count reads like this: (dose: 0.13 mg/kg/injection, schedule: Q01DX009 (ip), vehicle: saline with Tween-80) 6 of 6; (dose: 0.2 mg/kg/injection, schedule: Q01DX009 (ip), vehicle: saline with Tween-80) 6 of 6. For the same compound, the T/C runs as follows: (dose: 0.18 mg/kg/injection, schedule: Q01DX009 (ip), vehicle: saline with Tween-80) 136 % of control; (dose: 0.27 mg/kg/injection, schedule: Q01DX009 (ip), vehicle: saline with Tween-80) 131 % of control; (dose: 0.4 mg/kg/injection, schedule: Q01DX009 (ip), vehicle: saline with Tween-80) 145 % of control.
With `CS(=O)CC(C)(O)C1OC(=O)C=C2C3(C)CC4OC4C4(C)C(=O)OC(C34)C3OC231` (stereo unspecified), the T/C (dose: 5.0 mg/kg/injection, schedule: Q01DX009 (ip), vehicle: DMSO) is 128 % of control and the T/C (dose: 10.0 mg/kg/injection, schedule: Q01DX009 (ip), vehicle: DMSO) was 144 % of control.
For `CCN(CC)CCN(C(=O)C1c2ccccc2Oc2ccccc21)C1CCCCC1`, the survivor count is listed as 0 of 5 (dose: 100.0 mg/kg/injection, schedule: Q01DX005 (ip), vehicle: Klucel (hydroxypropylcellulose) (HPC)) and 0 of 5 under setting [4].
For the compound `Cc1ccc(N=C(SSC(Cl)(Cl)Cl)SSC(Cl)(Cl)Cl)cc1`, the survivor count is, setting by setting: (dose: 100.0 mg/kg/injection, schedule: Q01DX009 (ip), vehicle: saline + alcohol) 3 of 6; (dose: 200.0 mg/kg/injection, schedule: Q01DX009 (ip), vehicle: saline + alcohol) 0 of 6.
On to `CCc1nc(N)nc(N)c1-c1ccc2c(c1)nnn2CCc1ccccc1`, for which the survivor count under setting [4] is given as 3 of 6.
As to `COc1cc(/C=N\NC(=O)c2cccc(Cl)c2)ccc1N(CCCl)CCCl`, the T/C under setting [3] is 127 % of control.
As for `COC(=O)c1nnn(-c2ccc(C)c(C)c2)c1C(=O)c1ccccc1`, the survivor count (dose: 240.0 mg/kg/injection, schedule: Q01DX005 (ip), vehicle: saline with Tween-80) is recorded as 6 of 6.
On to `COC1=CC(=O)c2nc(Cl)ccc2C1=O`, for which the survivor count by setting is: (dose: 25.0 mg/kg/injection, schedule: Q01DX005 (ip), vehicle: saline with Tween-80) 6 of 6; (dose: 50.0 mg/kg/injection, schedule: Q01DX005 (ip), vehicle: saline with Tween-80) 0 of 6; (dose: 100.0 mg/kg/injection, schedule: Q01DX005 (ip), vehicle: saline with Tween-80) 0 of 6; (dose: 200.0 mg/kg/injection, schedule: Q01DX005 (ip), vehicle: saline with Tween-80) 0 of 6.
In the case of `Cc1cc[n+](CCC(N)=O)cc1`, the survivor count under setting [5] is recorded as 6 of 6.
Take `CC1CN=C(c2ccc(NC(=O)c3ccc(C(=O)Nc4ccc(C5=NCC(C)N5)cc4)c(N)c3)cc2)N1` (stereo unspecified): the T/C (dose: 5.0 mg/kg/injection, schedule: Q04DX003 (ip), vehicle: saline with Tween-80) is 136 % of control. The survivor count (dose: 20.0 mg/kg/injection, schedule: Q04DX003 (ip), vehicle: saline with Tween-80) is 2 of 6; the survivor count (dose: 100.0 mg/kg/injection, schedule: Q04DX003 (ip), vehicle: saline) is reported as 0 of 6; the survivor count (dose: 200.0 mg/kg/injection, schedule: Q04DX003 (ip), vehicle: saline) was 0 of 6; the survivor count under setting [5] is reported as 0 of 6.
Take `O=C(CCN1CCCC1)c1ccccc1`: the survivor count by setting is: (dose: 50.0 mg/kg/injection, schedule: Q01DX009 (ip), vehicle: saline) 0 of 6; (dose: 100.0 mg/kg/injection, schedule: Q01DX009 (ip), vehicle: saline) 0 of 6; (dose: 200.0 mg/kg/injection, schedule: Q01DX009 (ip), vehicle: saline) 0 of 6.
`Nc1cccc(CC(=O)Nc2ccccc2)c1`: for the setting “dose: 400.0 mg/kg/injection, schedule: Q04DX002 (ip), vehicle: Klucel (hydroxypropylcellulose) (HPC)”, the survivor count was 1 of 6.

The record behind these values is PubChem BioAssay AID330 (DTP/NCI, 2004).
